The list shows a part of the results.
Experiments:
Test in all cases: log2 fold change, soluble protein after heating vs DMSO (PISA); higher = thermal stabilisation; K562 lysate, 10 uM; active = over 0.2 and 3.5 SD of the protein, either way, in both replicates (recomputed)
[1] = compound: NCC(=O)Nc1ccc(-n2nc(C(F)(F)F)cc2-c2ccc3c(ccc4ccccc43)c2)cc1
Summary of the method: (§1)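 To prepare the extract, K562 pellets were dounce-homogenised in PBS pH 7.4 with 1 mM MgCl2, giving crude material at 1 mg/mL protein. This was treated with 10 μM compound for 30 min, then heated in aliquots for 3 min over 48°C-58°C before pooling and addition of NP-40 to 0.5% at 4°C. Centrifugation at 21,000xg for 90 min left soluble protein in the supernatant, which TMTpro 16plex LC-MS/MS quantified with equalised channel sums. Results are log-two fold changes in thermal stability compared with solvent controls, from duplicates.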

Chains of the proteins cited; added tags and fusions are not shown. Lines headed by an entry give the natural chain unless they say otherwise; changes in a name come on top.
UniProt Q9HBH1: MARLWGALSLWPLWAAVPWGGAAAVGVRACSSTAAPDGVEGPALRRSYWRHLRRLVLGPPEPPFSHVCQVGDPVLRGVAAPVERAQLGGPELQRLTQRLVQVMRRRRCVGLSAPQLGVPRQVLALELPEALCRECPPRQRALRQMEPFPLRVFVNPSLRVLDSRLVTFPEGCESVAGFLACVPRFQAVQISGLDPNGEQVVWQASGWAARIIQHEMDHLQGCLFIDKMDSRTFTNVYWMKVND
UniProt Q8N8D1: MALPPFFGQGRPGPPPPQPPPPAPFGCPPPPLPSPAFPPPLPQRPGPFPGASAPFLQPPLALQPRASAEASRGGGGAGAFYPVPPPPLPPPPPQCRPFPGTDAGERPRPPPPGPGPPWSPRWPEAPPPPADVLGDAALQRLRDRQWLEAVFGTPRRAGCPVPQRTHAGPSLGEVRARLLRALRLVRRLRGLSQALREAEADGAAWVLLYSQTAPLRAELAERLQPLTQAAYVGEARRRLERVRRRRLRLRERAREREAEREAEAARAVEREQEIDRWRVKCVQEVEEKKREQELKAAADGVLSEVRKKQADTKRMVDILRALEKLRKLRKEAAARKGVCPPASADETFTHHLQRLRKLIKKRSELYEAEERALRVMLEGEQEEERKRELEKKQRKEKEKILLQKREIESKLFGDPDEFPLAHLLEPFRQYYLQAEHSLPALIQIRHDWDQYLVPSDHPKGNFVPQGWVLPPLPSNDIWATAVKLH
UniProt Q9H0J9: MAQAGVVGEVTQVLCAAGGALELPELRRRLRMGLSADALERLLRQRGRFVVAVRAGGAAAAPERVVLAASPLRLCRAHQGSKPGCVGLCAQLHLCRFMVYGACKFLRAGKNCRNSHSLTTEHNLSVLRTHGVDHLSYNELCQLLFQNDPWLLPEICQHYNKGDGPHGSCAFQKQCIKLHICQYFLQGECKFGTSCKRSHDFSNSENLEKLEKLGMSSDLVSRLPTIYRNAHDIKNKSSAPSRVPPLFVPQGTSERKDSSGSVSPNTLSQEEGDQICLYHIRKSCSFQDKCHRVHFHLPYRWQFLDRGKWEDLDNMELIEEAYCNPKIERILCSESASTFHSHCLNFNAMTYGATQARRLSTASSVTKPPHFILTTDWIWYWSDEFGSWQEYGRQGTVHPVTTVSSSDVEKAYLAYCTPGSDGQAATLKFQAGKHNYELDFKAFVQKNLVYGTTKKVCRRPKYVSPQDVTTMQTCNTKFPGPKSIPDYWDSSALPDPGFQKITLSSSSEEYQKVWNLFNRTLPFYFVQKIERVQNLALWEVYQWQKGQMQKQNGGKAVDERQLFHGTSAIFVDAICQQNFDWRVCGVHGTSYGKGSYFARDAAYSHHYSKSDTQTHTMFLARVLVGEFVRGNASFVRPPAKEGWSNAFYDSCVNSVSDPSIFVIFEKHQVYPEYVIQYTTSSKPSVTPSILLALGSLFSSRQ
UniProt Q86U86, whole entry, looked up: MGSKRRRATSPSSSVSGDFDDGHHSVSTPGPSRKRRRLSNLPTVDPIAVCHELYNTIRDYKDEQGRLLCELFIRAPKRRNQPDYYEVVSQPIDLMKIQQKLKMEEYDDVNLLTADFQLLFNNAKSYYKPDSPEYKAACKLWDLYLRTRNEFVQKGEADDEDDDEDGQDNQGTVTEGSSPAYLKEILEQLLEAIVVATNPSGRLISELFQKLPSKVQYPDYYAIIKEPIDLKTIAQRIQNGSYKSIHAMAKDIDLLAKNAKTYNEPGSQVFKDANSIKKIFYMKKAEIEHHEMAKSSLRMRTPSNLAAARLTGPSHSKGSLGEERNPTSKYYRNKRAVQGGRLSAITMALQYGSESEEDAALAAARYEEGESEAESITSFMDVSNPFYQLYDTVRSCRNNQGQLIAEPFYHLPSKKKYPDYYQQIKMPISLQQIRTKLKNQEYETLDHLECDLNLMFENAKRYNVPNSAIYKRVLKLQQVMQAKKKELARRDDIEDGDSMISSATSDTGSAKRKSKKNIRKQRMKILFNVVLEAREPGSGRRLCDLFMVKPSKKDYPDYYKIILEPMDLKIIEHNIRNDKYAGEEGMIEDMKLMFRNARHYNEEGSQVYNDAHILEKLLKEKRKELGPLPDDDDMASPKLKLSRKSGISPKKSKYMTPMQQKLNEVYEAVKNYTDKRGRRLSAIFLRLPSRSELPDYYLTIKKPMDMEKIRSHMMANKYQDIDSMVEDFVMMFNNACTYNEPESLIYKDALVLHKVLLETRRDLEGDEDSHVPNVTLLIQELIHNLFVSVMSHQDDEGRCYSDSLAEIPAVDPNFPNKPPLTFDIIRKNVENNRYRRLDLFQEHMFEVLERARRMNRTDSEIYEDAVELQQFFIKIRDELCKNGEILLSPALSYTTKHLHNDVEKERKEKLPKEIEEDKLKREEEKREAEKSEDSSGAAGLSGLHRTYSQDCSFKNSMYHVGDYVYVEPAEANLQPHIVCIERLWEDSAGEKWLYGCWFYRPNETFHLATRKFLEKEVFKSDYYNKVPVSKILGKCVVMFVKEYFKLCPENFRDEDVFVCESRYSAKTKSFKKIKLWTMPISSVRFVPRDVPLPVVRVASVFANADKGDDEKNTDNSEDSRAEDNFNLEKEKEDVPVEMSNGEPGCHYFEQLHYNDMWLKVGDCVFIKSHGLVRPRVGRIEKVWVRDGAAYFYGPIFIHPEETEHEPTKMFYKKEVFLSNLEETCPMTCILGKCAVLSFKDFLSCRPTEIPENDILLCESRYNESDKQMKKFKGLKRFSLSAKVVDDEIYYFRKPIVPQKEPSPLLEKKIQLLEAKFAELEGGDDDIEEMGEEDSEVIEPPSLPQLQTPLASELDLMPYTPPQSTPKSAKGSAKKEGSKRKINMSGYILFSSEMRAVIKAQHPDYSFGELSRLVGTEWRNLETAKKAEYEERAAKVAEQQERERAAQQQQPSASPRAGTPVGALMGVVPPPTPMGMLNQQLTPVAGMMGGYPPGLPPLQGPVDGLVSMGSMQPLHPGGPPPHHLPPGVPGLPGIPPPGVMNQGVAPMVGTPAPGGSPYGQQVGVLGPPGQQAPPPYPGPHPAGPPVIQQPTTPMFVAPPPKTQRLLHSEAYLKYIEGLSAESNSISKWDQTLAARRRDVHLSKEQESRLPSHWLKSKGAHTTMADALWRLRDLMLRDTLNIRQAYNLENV
UniProt P56589: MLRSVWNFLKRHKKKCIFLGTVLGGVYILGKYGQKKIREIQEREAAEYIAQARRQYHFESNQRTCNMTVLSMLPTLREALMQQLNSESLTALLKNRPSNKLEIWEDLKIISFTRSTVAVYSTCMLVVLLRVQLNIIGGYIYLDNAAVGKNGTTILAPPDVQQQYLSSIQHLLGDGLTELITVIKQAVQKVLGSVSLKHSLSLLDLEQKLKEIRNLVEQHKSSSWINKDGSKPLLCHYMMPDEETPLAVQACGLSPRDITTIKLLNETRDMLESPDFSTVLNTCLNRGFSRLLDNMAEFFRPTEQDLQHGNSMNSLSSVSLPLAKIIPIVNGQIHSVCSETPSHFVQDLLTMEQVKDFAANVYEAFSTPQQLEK
UniProt Q15154: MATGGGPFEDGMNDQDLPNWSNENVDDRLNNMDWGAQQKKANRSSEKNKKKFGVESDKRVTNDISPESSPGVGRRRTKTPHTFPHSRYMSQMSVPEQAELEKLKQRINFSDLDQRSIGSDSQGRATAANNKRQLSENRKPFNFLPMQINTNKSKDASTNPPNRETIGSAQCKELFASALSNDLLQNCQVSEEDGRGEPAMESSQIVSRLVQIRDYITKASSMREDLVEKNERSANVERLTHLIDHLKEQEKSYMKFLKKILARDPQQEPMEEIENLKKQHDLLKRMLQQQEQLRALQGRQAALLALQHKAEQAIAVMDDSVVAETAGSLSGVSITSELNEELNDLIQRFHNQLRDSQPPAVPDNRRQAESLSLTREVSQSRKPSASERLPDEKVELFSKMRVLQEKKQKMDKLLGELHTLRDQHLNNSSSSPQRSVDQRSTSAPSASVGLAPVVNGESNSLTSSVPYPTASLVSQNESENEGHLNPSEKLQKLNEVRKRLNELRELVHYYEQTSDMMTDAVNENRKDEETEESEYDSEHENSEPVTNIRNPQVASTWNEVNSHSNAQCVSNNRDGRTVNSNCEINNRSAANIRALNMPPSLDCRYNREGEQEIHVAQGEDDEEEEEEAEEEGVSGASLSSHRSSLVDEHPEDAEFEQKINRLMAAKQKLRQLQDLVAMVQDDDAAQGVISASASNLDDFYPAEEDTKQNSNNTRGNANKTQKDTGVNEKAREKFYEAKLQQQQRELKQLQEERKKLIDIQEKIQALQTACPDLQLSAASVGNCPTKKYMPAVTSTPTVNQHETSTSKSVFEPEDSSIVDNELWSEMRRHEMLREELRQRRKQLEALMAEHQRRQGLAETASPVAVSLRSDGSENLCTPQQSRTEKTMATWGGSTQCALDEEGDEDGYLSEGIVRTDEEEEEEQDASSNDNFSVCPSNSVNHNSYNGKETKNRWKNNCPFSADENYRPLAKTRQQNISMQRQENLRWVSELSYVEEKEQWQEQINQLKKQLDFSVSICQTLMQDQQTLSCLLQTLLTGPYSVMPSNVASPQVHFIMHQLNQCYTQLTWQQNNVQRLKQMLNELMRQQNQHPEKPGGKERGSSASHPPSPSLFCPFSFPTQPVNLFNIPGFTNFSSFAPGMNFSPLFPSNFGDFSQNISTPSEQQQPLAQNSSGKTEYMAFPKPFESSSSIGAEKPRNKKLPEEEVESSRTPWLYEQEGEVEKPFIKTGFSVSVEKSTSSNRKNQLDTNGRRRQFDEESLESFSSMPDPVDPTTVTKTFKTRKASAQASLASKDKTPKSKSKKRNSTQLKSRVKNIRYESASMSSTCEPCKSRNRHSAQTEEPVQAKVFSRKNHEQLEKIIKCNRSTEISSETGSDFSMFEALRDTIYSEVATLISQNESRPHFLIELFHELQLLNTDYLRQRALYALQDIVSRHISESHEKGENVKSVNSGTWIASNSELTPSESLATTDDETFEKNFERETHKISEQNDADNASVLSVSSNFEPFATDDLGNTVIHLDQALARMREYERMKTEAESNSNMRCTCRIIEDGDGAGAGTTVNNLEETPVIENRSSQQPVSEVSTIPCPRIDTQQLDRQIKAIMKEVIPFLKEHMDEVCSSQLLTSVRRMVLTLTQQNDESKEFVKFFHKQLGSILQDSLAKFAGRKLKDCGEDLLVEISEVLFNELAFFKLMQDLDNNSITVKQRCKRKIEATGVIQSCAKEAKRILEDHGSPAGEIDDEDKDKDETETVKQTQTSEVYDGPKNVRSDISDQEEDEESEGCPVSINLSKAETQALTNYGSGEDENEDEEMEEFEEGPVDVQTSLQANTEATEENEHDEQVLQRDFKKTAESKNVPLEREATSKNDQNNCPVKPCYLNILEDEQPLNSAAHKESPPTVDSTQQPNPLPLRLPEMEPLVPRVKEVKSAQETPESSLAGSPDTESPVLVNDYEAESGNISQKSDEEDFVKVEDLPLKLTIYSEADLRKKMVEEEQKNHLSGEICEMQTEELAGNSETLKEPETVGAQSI
UniProt Q9BSM1: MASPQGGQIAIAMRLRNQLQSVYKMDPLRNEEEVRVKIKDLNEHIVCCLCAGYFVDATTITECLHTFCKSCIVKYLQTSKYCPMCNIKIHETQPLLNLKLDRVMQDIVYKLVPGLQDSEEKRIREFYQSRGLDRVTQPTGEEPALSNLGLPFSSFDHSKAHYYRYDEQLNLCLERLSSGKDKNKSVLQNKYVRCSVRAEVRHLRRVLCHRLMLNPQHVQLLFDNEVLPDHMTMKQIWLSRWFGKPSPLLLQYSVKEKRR
UniProt Q3KNV8: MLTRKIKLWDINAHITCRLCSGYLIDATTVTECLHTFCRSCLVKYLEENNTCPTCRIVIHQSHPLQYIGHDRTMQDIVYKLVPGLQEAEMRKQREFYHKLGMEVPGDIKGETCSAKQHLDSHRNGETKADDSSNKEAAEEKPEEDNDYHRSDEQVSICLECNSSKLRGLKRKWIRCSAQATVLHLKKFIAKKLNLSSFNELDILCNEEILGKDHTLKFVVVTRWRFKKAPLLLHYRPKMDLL
UniProt Q9NWS1: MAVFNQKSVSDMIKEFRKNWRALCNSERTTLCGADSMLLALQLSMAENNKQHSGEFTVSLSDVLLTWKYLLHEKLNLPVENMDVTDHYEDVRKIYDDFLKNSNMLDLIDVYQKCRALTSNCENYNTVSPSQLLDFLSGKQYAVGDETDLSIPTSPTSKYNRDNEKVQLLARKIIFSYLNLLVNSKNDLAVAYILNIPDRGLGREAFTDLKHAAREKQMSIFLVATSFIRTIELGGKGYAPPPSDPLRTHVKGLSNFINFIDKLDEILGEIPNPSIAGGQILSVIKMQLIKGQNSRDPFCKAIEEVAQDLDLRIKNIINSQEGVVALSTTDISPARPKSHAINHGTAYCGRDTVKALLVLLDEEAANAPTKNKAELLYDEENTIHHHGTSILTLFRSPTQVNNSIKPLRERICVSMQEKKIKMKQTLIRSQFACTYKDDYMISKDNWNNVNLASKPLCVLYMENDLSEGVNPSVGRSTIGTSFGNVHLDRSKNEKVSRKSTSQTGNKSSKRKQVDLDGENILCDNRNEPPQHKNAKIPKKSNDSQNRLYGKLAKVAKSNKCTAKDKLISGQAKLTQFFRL

entospletinib = compound: c1cn2cc(-c3ccc4cn[nH]c4c3)nc(Nc3ccc(N4CCOCC4)cc3)c2n1 [entospletinib]
Summary of the method: as §1

vorinostat = compound: O=C(CCCCCCC(=O)Nc1ccccc1)NO [vorinostat]
Summary of the method: as §1

silmitasertib = compound: O=C(O)c1ccc2c(c1)nc(Nc1cccc(Cl)c1)c1ccncc12 [silmitasertib]
Summary of the method: as §1

[2] = compound: O=C1NC(=O)C(c2cnc3ccccn23)=C1c1cn2c3c(cc(F)cc13)CN(C(=O)N1CCCCC1)CC2
Summary of the method: as §1

Measured: log2 fold change

PEX5 (UniProt J3KPV0)
inactive: [1] -0.093 | entospletinib -0.266

PDF (UniProt Q9HBH1)
inactive: [1] -0.095 | vorinostat -0.232 | silmitasertib 0.044 | [2] 0 | entospletinib -0.004

PFN3 (UniProt P60673)
inactive: [1] 0.158 | [2] -0.142 | entospletinib -0.134

PDP1 isoform 2 (UniProt Q9P0J1)
inactive: vorinostat 0.218 | silmitasertib -0.17 | entospletinib -0.022

PECR (UniProt Q9BY49)
inactive: entospletinib 0.115

Taken from the results shown (2 entries):
PFN3 (UniProt P60673)
inactive: [1] 0.158 | [2] -0.142 | entospletinib -0.134

PDP1 isoform 2 (UniProt Q9P0J1)
inactive: vorinostat 0.218 | silmitasertib -0.17 | entospletinib -0.022

Carrying on:

PDCD7 (UniProt Q8N8D1)
inactive: [2] 0.141 | entospletinib 0.084

PARP12 (UniProt Q9H0J9)
inactive: vorinostat -0.028 | silmitasertib -0.01 | [2] -0.178 | entospletinib 0.015

PBRM1 (UniProt Q86U86)
inactive: vorinostat 0.163 | silmitasertib -0.046 | [2] -0.108 | entospletinib -0.141

PEX3 (UniProt P56589)
inactive: [2] 0.026 | entospletinib -0.086

PCM1 isoform 5 (UniProt Q15154)
inactive: [2] -0.011 | entospletinib 0.072

PCGF1 (UniProt Q9BSM1)
inactive: [1] 0.248 | vorinostat -0.117 | silmitasertib -0.123 | entospletinib 0.071

PCGF3 isoform 2 (UniProt Q3KNV8)
inactive: vorinostat -0.243 | silmitasertib 0.11 | [2] -0.347

PARPBP (UniProt Q9NWS1)
inactive: [1] 0.08 | vorinostat 0.036 | silmitasertib 0.068 | entospletinib -0.05

Source: the supplement of paper PMC10849652
